The supplement of paper PMC10849652
The list shows a part of the results.

Chains of the proteins cited; added tags and fusions are not shown. Lines headed by an entry give the natural chain unless they say otherwise; changes in a name come on top.
UniProt Q16762: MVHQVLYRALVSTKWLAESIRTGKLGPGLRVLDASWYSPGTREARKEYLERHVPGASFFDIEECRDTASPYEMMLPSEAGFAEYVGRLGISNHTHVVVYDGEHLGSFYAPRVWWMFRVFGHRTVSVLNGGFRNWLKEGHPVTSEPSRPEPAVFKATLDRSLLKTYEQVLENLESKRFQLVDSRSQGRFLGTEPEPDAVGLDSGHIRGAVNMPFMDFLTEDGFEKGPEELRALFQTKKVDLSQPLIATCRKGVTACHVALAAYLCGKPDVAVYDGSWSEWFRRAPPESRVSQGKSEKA
UniProt Q14166: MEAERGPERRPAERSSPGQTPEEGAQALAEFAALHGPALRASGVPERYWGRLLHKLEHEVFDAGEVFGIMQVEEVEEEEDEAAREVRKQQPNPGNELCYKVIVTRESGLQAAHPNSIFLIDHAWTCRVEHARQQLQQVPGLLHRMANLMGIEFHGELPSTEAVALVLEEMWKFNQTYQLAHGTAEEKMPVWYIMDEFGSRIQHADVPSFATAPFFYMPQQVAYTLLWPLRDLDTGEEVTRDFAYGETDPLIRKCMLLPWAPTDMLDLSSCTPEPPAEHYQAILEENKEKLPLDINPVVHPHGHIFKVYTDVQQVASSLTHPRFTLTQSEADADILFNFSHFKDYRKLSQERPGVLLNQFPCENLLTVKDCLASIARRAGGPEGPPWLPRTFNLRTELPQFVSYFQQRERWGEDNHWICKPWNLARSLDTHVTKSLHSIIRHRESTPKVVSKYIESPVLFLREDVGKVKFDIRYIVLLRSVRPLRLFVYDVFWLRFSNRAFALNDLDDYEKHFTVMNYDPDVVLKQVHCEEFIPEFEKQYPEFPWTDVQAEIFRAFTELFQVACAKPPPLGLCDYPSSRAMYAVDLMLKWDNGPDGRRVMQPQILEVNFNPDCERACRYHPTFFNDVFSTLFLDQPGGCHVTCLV
UniProt Q8WVT3: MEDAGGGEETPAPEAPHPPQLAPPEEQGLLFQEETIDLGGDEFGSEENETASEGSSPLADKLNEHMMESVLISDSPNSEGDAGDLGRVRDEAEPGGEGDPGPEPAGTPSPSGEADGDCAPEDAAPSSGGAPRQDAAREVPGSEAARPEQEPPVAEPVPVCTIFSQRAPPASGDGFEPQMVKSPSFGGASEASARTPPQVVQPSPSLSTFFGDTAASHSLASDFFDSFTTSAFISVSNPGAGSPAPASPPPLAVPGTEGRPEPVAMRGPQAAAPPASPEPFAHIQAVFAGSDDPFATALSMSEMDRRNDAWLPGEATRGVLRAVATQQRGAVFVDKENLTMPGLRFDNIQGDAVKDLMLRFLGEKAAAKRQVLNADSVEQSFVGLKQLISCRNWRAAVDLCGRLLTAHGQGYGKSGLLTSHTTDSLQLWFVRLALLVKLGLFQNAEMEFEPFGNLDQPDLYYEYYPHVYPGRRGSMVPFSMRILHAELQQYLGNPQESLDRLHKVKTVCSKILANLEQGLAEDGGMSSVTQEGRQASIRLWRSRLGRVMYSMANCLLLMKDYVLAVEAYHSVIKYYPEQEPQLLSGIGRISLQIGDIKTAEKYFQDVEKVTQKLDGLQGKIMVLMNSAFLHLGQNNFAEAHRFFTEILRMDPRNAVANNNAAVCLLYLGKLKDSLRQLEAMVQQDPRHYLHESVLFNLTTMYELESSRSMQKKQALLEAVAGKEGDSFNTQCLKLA
UniProt Q96Q05, whole entry, looked up: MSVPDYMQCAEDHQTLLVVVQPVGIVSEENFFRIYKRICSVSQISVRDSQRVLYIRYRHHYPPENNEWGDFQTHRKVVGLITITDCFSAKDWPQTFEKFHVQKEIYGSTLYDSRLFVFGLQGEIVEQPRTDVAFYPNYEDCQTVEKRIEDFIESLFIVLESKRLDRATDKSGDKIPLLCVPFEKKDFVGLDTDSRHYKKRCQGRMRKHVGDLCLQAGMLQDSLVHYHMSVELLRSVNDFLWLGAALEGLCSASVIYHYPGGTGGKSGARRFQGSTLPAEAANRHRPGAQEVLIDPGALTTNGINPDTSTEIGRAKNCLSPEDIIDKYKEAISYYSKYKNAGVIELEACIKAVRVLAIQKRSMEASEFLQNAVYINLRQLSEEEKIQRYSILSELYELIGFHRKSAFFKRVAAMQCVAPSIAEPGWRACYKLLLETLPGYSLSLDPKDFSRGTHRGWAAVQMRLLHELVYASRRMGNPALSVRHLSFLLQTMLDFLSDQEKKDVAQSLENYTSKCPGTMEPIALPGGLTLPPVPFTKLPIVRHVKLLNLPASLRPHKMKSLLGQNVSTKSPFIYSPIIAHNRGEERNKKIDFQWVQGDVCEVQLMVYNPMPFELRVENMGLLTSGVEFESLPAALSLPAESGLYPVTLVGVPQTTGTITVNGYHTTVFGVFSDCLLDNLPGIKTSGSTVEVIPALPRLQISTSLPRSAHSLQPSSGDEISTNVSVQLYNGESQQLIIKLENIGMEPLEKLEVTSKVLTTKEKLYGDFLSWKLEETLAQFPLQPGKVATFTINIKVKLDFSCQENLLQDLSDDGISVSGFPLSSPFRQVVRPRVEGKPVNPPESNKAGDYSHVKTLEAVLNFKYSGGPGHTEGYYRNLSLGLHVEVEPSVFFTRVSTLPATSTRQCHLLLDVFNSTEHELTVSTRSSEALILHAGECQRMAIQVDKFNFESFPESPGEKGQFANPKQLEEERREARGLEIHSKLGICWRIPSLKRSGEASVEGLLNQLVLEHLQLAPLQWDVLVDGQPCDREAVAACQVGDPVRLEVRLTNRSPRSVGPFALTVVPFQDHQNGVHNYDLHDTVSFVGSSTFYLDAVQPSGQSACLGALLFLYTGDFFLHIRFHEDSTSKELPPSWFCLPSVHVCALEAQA
UniProt Q8WW01: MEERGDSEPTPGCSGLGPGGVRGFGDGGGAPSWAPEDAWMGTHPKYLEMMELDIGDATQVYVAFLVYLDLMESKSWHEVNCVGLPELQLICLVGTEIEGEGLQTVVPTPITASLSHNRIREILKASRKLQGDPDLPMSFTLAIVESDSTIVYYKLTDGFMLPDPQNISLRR
UniProt Q9Y3Q8: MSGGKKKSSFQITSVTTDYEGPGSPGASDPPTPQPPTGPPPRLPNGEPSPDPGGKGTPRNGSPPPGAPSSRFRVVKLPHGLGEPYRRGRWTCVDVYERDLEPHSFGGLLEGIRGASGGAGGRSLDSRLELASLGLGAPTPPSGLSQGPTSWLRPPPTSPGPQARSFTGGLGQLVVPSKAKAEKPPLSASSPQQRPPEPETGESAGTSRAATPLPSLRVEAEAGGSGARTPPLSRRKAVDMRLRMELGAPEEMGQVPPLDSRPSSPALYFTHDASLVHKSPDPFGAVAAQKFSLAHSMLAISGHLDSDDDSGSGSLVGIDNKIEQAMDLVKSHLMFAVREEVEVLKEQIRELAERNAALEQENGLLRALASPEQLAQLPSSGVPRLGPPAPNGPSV
UniProt Q9C037: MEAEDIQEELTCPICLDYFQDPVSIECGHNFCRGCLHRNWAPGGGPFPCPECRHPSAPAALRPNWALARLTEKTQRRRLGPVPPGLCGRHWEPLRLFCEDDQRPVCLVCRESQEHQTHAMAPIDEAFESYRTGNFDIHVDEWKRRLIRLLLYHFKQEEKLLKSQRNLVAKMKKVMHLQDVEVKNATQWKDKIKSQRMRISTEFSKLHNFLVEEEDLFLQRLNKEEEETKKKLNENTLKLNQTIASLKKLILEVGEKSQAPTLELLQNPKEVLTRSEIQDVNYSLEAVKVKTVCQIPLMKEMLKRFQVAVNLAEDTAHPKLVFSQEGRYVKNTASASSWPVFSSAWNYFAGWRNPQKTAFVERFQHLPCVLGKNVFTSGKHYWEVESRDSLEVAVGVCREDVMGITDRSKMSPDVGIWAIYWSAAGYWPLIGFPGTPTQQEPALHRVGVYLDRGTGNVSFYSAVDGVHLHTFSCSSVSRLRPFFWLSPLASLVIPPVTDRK
UniProt Q8IZ69: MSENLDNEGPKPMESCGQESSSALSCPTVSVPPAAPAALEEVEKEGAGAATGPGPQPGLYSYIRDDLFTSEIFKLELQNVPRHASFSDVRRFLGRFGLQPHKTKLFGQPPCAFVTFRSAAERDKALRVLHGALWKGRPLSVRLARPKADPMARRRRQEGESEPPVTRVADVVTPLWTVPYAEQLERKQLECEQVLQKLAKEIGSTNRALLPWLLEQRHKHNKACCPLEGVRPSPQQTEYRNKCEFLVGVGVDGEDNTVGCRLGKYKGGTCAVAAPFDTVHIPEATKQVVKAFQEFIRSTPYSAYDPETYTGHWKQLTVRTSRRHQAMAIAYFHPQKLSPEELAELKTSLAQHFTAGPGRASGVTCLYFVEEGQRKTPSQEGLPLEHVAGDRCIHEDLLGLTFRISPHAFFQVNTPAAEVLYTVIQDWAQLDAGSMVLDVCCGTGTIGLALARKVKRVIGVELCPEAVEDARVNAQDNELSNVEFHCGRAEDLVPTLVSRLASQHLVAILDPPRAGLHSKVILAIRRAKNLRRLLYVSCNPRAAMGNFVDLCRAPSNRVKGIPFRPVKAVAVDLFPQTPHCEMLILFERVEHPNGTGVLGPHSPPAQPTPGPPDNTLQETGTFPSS
UniProt Q8NG68: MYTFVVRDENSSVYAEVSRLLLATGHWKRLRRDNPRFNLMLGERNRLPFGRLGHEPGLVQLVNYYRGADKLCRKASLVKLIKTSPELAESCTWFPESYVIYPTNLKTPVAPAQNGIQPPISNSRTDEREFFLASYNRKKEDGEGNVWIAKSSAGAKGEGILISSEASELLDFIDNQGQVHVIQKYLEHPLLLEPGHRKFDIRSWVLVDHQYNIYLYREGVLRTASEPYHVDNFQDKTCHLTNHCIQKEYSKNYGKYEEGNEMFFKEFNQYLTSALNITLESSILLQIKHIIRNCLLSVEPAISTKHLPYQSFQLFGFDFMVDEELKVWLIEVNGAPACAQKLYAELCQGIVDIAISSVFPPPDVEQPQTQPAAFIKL
UniProt P36406: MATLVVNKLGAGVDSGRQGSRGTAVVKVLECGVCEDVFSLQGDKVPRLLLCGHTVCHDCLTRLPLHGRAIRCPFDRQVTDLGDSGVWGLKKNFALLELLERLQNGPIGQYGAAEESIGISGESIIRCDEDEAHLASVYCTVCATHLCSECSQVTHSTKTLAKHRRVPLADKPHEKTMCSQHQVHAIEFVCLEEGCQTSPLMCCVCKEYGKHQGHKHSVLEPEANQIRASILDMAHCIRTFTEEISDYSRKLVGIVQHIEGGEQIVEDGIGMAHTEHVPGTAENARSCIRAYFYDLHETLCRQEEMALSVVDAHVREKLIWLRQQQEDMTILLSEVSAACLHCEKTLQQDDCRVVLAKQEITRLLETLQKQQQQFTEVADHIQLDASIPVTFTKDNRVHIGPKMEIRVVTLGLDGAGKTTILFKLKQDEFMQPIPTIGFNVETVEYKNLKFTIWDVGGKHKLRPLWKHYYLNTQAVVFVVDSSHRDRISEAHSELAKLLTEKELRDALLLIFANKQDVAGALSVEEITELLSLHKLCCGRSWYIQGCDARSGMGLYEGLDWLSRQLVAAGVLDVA
UniProt Q6PID6, whole entry, looked up: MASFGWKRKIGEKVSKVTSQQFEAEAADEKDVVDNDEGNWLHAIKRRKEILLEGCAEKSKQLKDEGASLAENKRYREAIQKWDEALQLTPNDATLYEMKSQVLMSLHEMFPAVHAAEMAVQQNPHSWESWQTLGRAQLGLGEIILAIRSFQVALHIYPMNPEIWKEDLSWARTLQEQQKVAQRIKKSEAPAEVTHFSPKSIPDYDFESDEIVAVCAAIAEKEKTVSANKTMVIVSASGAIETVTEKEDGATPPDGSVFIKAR
UniProt Q9BUZ4: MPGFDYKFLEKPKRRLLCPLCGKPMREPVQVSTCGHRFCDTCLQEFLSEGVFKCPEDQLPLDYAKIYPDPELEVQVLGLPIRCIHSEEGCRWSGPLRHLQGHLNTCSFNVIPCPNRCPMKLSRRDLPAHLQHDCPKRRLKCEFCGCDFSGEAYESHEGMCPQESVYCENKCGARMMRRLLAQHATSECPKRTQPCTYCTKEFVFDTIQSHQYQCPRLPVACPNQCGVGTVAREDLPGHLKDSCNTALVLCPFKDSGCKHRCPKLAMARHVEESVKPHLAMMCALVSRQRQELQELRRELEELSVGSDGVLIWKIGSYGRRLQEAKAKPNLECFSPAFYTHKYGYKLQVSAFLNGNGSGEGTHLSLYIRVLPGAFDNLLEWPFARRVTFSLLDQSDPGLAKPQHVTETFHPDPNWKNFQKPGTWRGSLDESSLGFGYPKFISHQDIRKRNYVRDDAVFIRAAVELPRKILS
UniProt Q5BVD1: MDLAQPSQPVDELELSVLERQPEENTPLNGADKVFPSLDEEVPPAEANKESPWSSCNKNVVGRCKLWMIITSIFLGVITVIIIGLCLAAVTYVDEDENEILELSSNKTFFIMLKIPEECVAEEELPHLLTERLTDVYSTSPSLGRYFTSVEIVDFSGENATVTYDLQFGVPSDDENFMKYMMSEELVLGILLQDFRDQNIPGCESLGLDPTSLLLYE

Key:
Assay in all cases: log2 fold change, soluble protein after heating vs DMSO (PISA); higher = thermal stabilisation; K562 lysate, 10 uM; active = over 0.2 and 3.5 SD of the protein, either way, in both replicates (recomputed)
ibrutinib = compound: C=CC(=O)N1CCC[C@@H](n2nc(-c3ccc(Oc4ccccc4)cc3)c3c(N)ncnc32)C1 [ibrutinib]
Method in brief: (§1)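 Values give the log-two fold change in thermal stability against solvent controls, from duplicates. Crude K562 extract at 1 mg/mL protein, made by dounce homogenisation in PBS pH 7.4 with 1 mM MgCl2, was treated with 10 μM compound for 30 min. After 3 min heating across 48°C-58°C, aliquots were pooled, adjusted to 0.5% NP-40 at 4°C and centrifuged at 21,000xg for 90 min. The supernatant was measured by TMTpro 16plex LC-MS/MS with channel sums equalised.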

[1] = compound: CC(=O)c1cnc2ccc(-c3cc(Cl)c(O)c(Cl)c3)nc2c1N[C@H]1CC[C@H](CN(C)C)CC1
Method in brief: as §1

ralimetinib = compound: CC(C)(C)Cn1c(N)nc2ccc(-c3[nH]c(C(C)(C)C)nc3-c3ccc(F)cc3)nc21 [ralimetinib]
Method in brief: as §1

[2] = compound: CC(C)(O)CC(=O)NCCn1ccc2ncnc(Nc3ccc(Oc4cccc(C(F)(F)F)c4)c(Cl)c3)c21
Method in brief: as §1

[3] = compound: CC(C)C1=C2N=C(C=C(N2N=C1)NCC3=CC=CC=C3)NCCCCCCN
Method in brief: as §1

[4] = compound: CC1=C(C(CC(=O)N1)C2=CC=C(C=C2)C(F)(F)F)C(=O)NC3=C(C=C4C(=C3)C=NN4)F
Method in brief: as §1

[5] = compound: CC1=C(C2=C(C=C1)C(=O)C3=CC=CC=C3N2CCCN)C
Method in brief: as §1

[6] = compound: CC1=C(C=C(C=C1)NC(=O)C2=CC(=CC=C2)C(C)(C)C#N)NC3=CC4=C(C=C3)N=CN(C4=O)C
Method in brief: as §1

[7] = compound: CC1=C(C=C(C=C1)NC(=O)C2=CC(=CC=C2)N(C)C)NC(=O)C3=CC=C(C=C3)O
Method in brief: as §1

[8] = compound: CC1=CC=C(C=C1)SC2=C3C=C(SC3=CN=C2)C(=O)N
Method in brief: as §1

vemurafenib = compound: CCCS(=O)(=O)Nc1ccc(F)c(C(=O)c2c[nH]c3ncc(-c4ccc(Cl)cc4)cc23)c1F [vemurafenib]
Method in brief: as §1

[9] = compound: CCCS(=O)(=O)Nc1ccc(F)c(C(=O)c2c[nH]c3ncc(Cl)cc23)c1F
Method in brief: as §1

barasertib = compound: CCN(CCCOc1ccc2c(Nc3cc(CC(=O)Nc4cccc(F)c4)[nH]n3)ncnc2c1)CCOP(=O)(O)O [barasertib]
Method in brief: as §1

[10] = compound: CC[C@@H]1C(=O)N(C)c2cnc(Nc3ccc(C(=O)NC4CCN(C)CC4)cc3OC)nc2N1C1CCCC1
Method in brief: as §1

volasertib = compound: CC[C@@H]1C(=O)N(C)c2cnc(Nc3ccc(C(=O)N[C@H]4CC[C@H](N5CCN(CC6CC6)CC5)CC4)cc3OC)nc2N1C(C)C [volasertib]
Method in brief: as §1

[11] = compound: CCn1c(C(=O)N(C2CC2)C2CC2)cc2c3c(ncn3C)c(Nc3cc(C)n(C)n3)nc21
Method in brief: as §1

[12] = compound: CCn1cc(-c2ccnc3[nH]c(-c4cccc(CN(C)C)c4)cc23)c(-c2ccc(NC(=O)N(C)C)cc2)n1
Method in brief: as §1

[13] = compound: CN1CCC(CNc2ccc3ncc(-c4cccc(OC(F)(F)F)c4)n3n2)CC1
Method in brief: as §1

saracatinib = compound: CN1CCN(CCOc2cc(OC3CCOCC3)c3c(Nc4c(Cl)ccc5c4OCO5)ncnc3c2)CC1 [saracatinib]
Method in brief: as §1

sotrastaurin = compound: CN1CCN(c2nc(C3=C(c4c[nH]c5ccccc45)C(=O)NC3=O)c3ccccc3n2)CC1 [sotrastaurin]
Method in brief: as §1

Target | log2 fold change (ibrutinib) | log2 fold change [1] | log2 fold change (ralimetinib) | log2 fold change [2] | log2 fold change [3] | log2 fold change [4] | log2 fold change [5] | log2 fold change [6] | log2 fold change [7] | log2 fold change [8] | log2 fold change (vemurafenib) | log2 fold change [9] | log2 fold change (barasertib) | log2 fold change [10] | log2 fold change (volasertib) | log2 fold change [11] | log2 fold change [12] | log2 fold change [13] | log2 fold change (saracatinib) | log2 fold change (sotrastaurin)
TST (UniProt Q16762) | inactive: 0.038 | inactive: 0.003 | inactive: -0.099 | inactive: 0.028 | inactive: 0 | inactive: 0.062 | inactive: 0.006 | inactive: -0.012 | inactive: 0.064 | inactive: -0.007 | inactive: 0.109 | inactive: 0.031 | inactive: -0.013 | inactive: 0.021 | inactive: 0.005 | inactive: -0.097 | inactive: 0.029 | inactive: -0.016 | inactive: -0.034 | inactive: 0.004
TTLL12 (UniProt Q14166) | inactive: -0.018 | inactive: 0.003 | inactive: 0.026 | inactive: 0.005 | inactive: 0.044 | inactive: -0.026 | inactive: -0.032 | inactive: -0.008 | inactive: 0.031 | inactive: 0.012 | inactive: 0.016 | inactive: 0.007 | inactive: -0.001 | inactive: -0.07 | inactive: -0.07 | inactive: 0.019 | inactive: -0.033 | inactive: 0.009 | inactive: 0.004 | inactive: 0.022
TRAPPC12 (UniProt Q8WVT3) | inactive: 0.001 | inactive: -0.011 | inactive: 0.064 | inactive: 0.02 | inactive: -0.014 | inactive: -0.022 | inactive: -0.003 | inactive: 0.008 | inactive: -0.001 | inactive: 0.009 | inactive: 0.039 | inactive: -0.001 | inactive: -0.007 | inactive: 0.047 | inactive: -0.083 | inactive: -0.03 | inactive: -0.027 | inactive: -0.009 | inactive: 0.028 | inactive: -0.003
TRAPPC9 isoform 2 (UniProt Q96Q05) | inactive: 0.003 | inactive: 0.019 | inactive: 0.055 | inactive: -0.025 | inactive: -0.003 | inactive: -0.043 | inactive: -0.023 | inactive: 0.02 | inactive: -0.016 | inactive: -0.001 | inactive: 0.053 | inactive: 0.001 | inactive: 0.007 | inactive: -0.004 | inactive: -0.059 | inactive: 0.021 | inactive: 0.011 | inactive: 0.019 | inactive: 0.005 | inactive: -0.035
TSEN15 (UniProt Q8WW01) | inactive: -0.072 | inactive: -0.021 | inactive: -0.016 | inactive: 0.016 | inactive: -0.05 | inactive: -0.062 | inactive: 0.008 | inactive: -0.009 | inactive: -0.008 | inactive: 0.019 | inactive: 0.021 | inactive: 0.008 | inactive: 0.059 | inactive: -0.033 | inactive: -0.006 | inactive: -0.062 | inactive: -0.109 | inactive: 0.02 | inactive: 0 | inactive: 0.012
TSC22D4 (UniProt Q9Y3Q8) | inactive: 0.045 | inactive: -0.026 | inactive: 0.026 | inactive: 0.02 | inactive: 0.005 | inactive: -0.012 | inactive: -0.012 | inactive: -0.007 | inactive: -0.001 | inactive: -0.013 | inactive: 0.016 | inactive: 0.016 | inactive: -0.063 | inactive: 0.038 | inactive: -0.01 | inactive: -0.015 | inactive: -0.027 | inactive: -0.012 | inactive: 0.016 | inactive: 0.019
TRIM4 (UniProt Q9C037) | inactive: -0.11 | inactive: -0.024 | inactive: 0.034 | inactive: -0.034 | inactive: 0.029 | inactive: 0.061 | inactive: 0.03 | inactive: 0 | inactive: 0 | inactive: -0.029 | inactive: -0.018 | inactive: 0.052 | inactive: -0.045 | inactive: -0.103 | inactive: -0.027 | inactive: 0.014 | inactive: 0.032 | inactive: -0.205 | inactive: 0.042 | inactive: 0.018
TRIM65 (UniProt Q6PJ69) | inactive: 0.053 | inactive: 0.073 | inactive: 0.046 | inactive: -0.035 | inactive: 0.005 | inactive: 0.047 | inactive: 0.006 | inactive: 0.006 | inactive: 0.003 | inactive: -0.063 | inactive: 0.025 | inactive: 0.085 | inactive: 0.013 | inactive: 0.026 | inactive: -0.076 | inactive: 0 | inactive: -0.056 | inactive: 0.008 | inactive: -0.022 | inactive: 0.022
TRMT2A (UniProt Q8IZ69) | inactive: 0.002 | inactive: 0.005 | inactive: 0.026 | inactive: -0.005 | inactive: 0.001 | inactive: 0.012 | inactive: -0.007 | inactive: -0.03 | inactive: 0.035 | inactive: 0.008 | inactive: -0.028 | inactive: 0.004 | inactive: 0.016 | inactive: -0.019 | inactive: -0.045 | inactive: 0.005 | inactive: -0.016 | inactive: 0.009 | inactive: -0.007 | inactive: 0.002
TTL (UniProt Q8NG68) | inactive: 0.014 | inactive: 0.101 | inactive: -0.029 | inactive: 0.037 | inactive: 0.018 | inactive: 0.016 | inactive: -0.065 | inactive: 0.063 | inactive: 0.063 | inactive: -0.074 | inactive: -0.066 | inactive: 0.053 | inactive: 0 | inactive: -0.231 | inactive: -0.116 | inactive: 0.021 | inactive: 0.009 | inactive: -0.044 | inactive: -0.068 | inactive: 0.078
TRIM23 (UniProt P36406) | inactive: -0.031 | inactive: 0.061 | inactive: -0.102 | inactive: -0.085 | inactive: -0.056 | inactive: 0.026 | inactive: -0.065 | inactive: 0.099 | inactive: -0.22 | inactive: -0.022 | inactive: 0.077 | inactive: -0.038 | inactive: 0.119 | inactive: 0.115 | inactive: -0.03 | inactive: 0.316 | inactive: -0.28 | inactive: 0.073 | inactive: 0.096 | inactive: 0.01
TRPV2 (UniProt Q9Y5S1) | inactive: 0.013 | inactive: -0.008 | inactive: -0.009 | inactive: -0.008 | inactive: -0.022 | inactive: -0.009 | inactive: -0.011 | inactive: -0.006 | inactive: -0.016 | inactive: -0.008 | inactive: -0.04 | inactive: 0.026 | inactive: 0.03 | inactive: -0.044 | inactive: 0.028 | inactive: 0.013 | inactive: -0.083 | inactive: 0.086 | inactive: 0.051 | inactive: -0.002
TTC33 (UniProt Q6PID6) | inactive: 0.108 | inactive: -0.039 | inactive: -0.015 | inactive: -0.039 | inactive: -0.017 | inactive: 0.106 | inactive: -0.043 | inactive: 0.011 | inactive: -0.043 | inactive: -0.057 | inactive: 0.007 | inactive: -0.025 | inactive: 0.042 | inactive: 0.005 | inactive: -0.023 | inactive: -0.001 | inactive: 0.107 | inactive: -0.047 | inactive: 0.03 | inactive: -0.019
TRAF4 (UniProt Q9BUZ4) | inactive: -0.154 | inactive: -0.085 | inactive: 0.066 | inactive: -0.074 | inactive: -0.01 | inactive: -0.01 | inactive: 0.002 | inactive: 0.035 | inactive: 0.023 | inactive: 0.022 | inactive: -0.174 | inactive: 0.18 | inactive: 0.023 | inactive: 0.068 | inactive: 0.061 | inactive: 0.009 | inactive: 0.155 | inactive: -0.035 | inactive: -0.079 | inactive: -0.068
TRIM24 (UniProt O15164) | inactive: 0.078 | inactive: 0.056 | inactive: -0.03 | inactive: 0.051 | inactive: 0.019 | inactive: -0.043 | inactive: -0.021 | inactive: -0.021 | inactive: 0.076 | inactive: -0.067 | inactive: -0.008 | inactive: 0.017 | inactive: 0.015 | inactive: -0.047 | inactive: 0.012 | inactive: 0.016 | inactive: 0.124 | inactive: -0.056 | inactive: 0.05 | inactive: 0.044
TTMP isoform 3 (UniProt Q5BVD1) | inactive: 0.09 | inactive: 0 | inactive: -0.034 | inactive: -0.22 | inactive: -0.038 | inactive: -0.091 | inactive: -0.02 | inactive: 0.296 | inactive: -0.004 | inactive: -0.099 | inactive: 0.227 | inactive: 0.029 | inactive: -0.025 | inactive: 0.122 | inactive: 0.031 | inactive: -0.182 | active: -0.88 | inactive: 0.316 | inactive: 0.012 | inactive: -0.029

2 successive entries from above, quoted:
Target | log2 fold change (ibrutinib) | log2 fold change [1] | log2 fold change (ralimetinib) | log2 fold change [2] | log2 fold change [3] | log2 fold change [4] | log2 fold change [5] | log2 fold change [6] | log2 fold change [7] | log2 fold change [8] | log2 fold change (vemurafenib) | log2 fold change [9] | log2 fold change (barasertib) | log2 fold change [10] | log2 fold change (volasertib) | log2 fold change [11] | log2 fold change [12] | log2 fold change [13] | log2 fold change (saracatinib) | log2 fold change (sotrastaurin)
TSEN15 (UniProt Q8WW01) | inactive: -0.072 | inactive: -0.021 | inactive: -0.016 | inactive: 0.016 | inactive: -0.05 | inactive: -0.062 | inactive: 0.008 | inactive: -0.009 | inactive: -0.008 | inactive: 0.019 | inactive: 0.021 | inactive: 0.008 | inactive: 0.059 | inactive: -0.033 | inactive: -0.006 | inactive: -0.062 | inactive: -0.109 | inactive: 0.02 | inactive: 0 | inactive: 0.012
TSC22D4 (UniProt Q9Y3Q8) | inactive: 0.045 | inactive: -0.026 | inactive: 0.026 | inactive: 0.02 | inactive: 0.005 | inactive: -0.012 | inactive: -0.012 | inactive: -0.007 | inactive: -0.001 | inactive: -0.013 | inactive: 0.016 | inactive: 0.016 | inactive: -0.063 | inactive: 0.038 | inactive: -0.01 | inactive: -0.015 | inactive: -0.027 | inactive: -0.012 | inactive: 0.016 | inactive: 0.019
